Measured values as given in the supplement of paper PMC10077471.
Over roughly 1,900 compounds, “excess over highest single agent (ExcessHSA) synergy score, 6x6 matrix” has its median near -83; the lowest 2% begin near -370. The list shows a part of the results.

System: NCI-H446
Assay: excess over highest single agent (ExcessHSA) synergy score, 6x6 matrix; higher = less synergy (more negative = stronger synergy)
Conditions: 72 h; CellTiter-Glo viability

Row | SMILES | excess over highest single agent
1 | CC(C)C[C@H](CC(=O)O)C(=O)N[C@@H](Cc1c[nH]c2ccccc12)C(=O)N[C@@H](C)c1ccccc1 + Cc1sc2c(c1C)C(c1ccc(Cl)cc1)=N[C@@H](CC(=O)OC(C)(C)C)c1nnc(C)n1-2 [NCGC00250412-19] | -48.2
2 | CCCCOCCOc1nc(-c2ccc(C(=O)O)c(F)c2)sc1C + Cc1sc2c(c1C)C(c1ccc(Cl)cc1)=N[C@@H](CC(=O)OC(C)(C)C)c1nnc(C)n1-2 [NCGC00250412-19] | -217
3 | Cc1ccc(C(=O)Nc2ccc(CN3CCN(C)CC3)c(C(F)(F)F)c2)cc1C#Cc1cnc2cccnn12 + Cc1sc2c(c1C)C(c1ccc(Cl)cc1)=N[C@@H](CC(=O)OC(C)(C)C)c1nnc(C)n1-2 [NCGC00250412-19] | -162
4 | O=C(Nc1cccc2c(=O)cc(-c3nnn[nH]3)oc12)c1ccc(OCCCCc2ccccc2)cc1 + Cc1sc2c(c1C)C(c1ccc(Cl)cc1)=N[C@@H](CC(=O)OC(C)(C)C)c1nnc(C)n1-2 [NCGC00250412-19] | -286
5 | CC[C@]1(O)C[C@@H]2CN(CCc3c([nH]c4ccccc34)[C@@](C(=O)OC)(c3cc4c(cc3OC)N(C)[C@H]3[C@@](O)(C(N)=O)[C@H](O)[C@]5(CC)C=CCN6CC[C@]43[C@@H]65)C2)C1 + Cc1sc2c(c1C)C(c1ccc(Cl)cc1)=N[C@@H](CC(=O)OC(C)(C)C)c1nnc(C)n1-2 [NCGC00250412-19] | -90
6 | COc1ccc(Cc2nccc3cc(OC)c(OC)cc23)cc1OC + Cc1sc2c(c1C)C(c1ccc(Cl)cc1)=N[C@@H](CC(=O)OC(C)(C)C)c1nnc(C)n1-2 [NCGC00250412-19] | 8.39
7 | c1ccc(C2CN3CCSC3=N2)cc1 (stereo not given) + Cc1sc2c(c1C)C(c1ccc(Cl)cc1)=N[C@@H](CC(=O)OC(C)(C)C)c1nnc(C)n1-2 [NCGC00250412-19] | -139
8 | CC(C)(C)c1[nH]cnc1/C=c1\[nH]c(=O)/c(=C/c2ccccc2)[nH]c1=O + Cc1sc2c(c1C)C(c1ccc(Cl)cc1)=N[C@@H](CC(=O)OC(C)(C)C)c1nnc(C)n1-2 [NCGC00250412-19] | -172
9 | CCCCCCCCCCCCCCCCCCOP(=O)([O-])OC1CC[N+](C)(C)CC1 + Cc1sc2c(c1C)C(c1ccc(Cl)cc1)=N[C@@H](CC(=O)OC(C)(C)C)c1nnc(C)n1-2 [NCGC00250412-19] | 129
10 | O=C(Nc1ccc(OC(F)(F)F)cc1)c1sccc1NCc1ccnc2ccccc12 + Cc1sc2c(c1C)C(c1ccc(Cl)cc1)=N[C@@H](CC(=O)OC(C)(C)C)c1nnc(C)n1-2 [NCGC00250412-19] | -134
11 | Nc1ncn([C@@H]2O[C@H](CO)[C@@H](O)[C@H]2O)c(=O)n1 + Cc1sc2c(c1C)C(c1ccc(Cl)cc1)=N[C@@H](CC(=O)OC(C)(C)C)c1nnc(C)n1-2 [NCGC00250412-19] | -276
12 | CC(COc1ccccc1)N(CCCl)Cc1ccccc1 (stereo not given) + Cc1sc2c(c1C)C(c1ccc(Cl)cc1)=N[C@@H](CC(=O)OC(C)(C)C)c1nnc(C)n1-2 [NCGC00250412-19] | -72.4
13 | CC[C@@H](C)[C@H](NC(=O)[C@H](CC1CCCCC1)NC(=O)c1ccno1)C(=O)N1CCC2(CCc3ccccc32)CC1 + Cc1sc2c(c1C)C(c1ccc(Cl)cc1)=N[C@@H](CC(=O)OC(C)(C)C)c1nnc(C)n1-2 [NCGC00250412-19] | -93.4
14 | COc1ccc(C(=O)CC2(O)C(=O)Nc3c(Cl)ccc(Cl)c32)cc1 (stereo not given) + Cc1sc2c(c1C)C(c1ccc(Cl)cc1)=N[C@@H](CC(=O)OC(C)(C)C)c1nnc(C)n1-2 [NCGC00250412-19] | -308
15 | CCCN[C@H]1CCc2nc(N)sc2C1 + Cc1sc2c(c1C)C(c1ccc(Cl)cc1)=N[C@@H](CC(=O)OC(C)(C)C)c1nnc(C)n1-2 [NCGC00250412-19] | 58.3
16 | CC(C)(C)Cn1c(N)nc2ccc(-c3[nH]c(C(C)(C)C)nc3-c3ccc(F)cc3)nc21 + Cc1sc2c(c1C)C(c1ccc(Cl)cc1)=N[C@@H](CC(=O)OC(C)(C)C)c1nnc(C)n1-2 [NCGC00250412-19] | 63.8
17 | CCOC(=O)c1ccc(OC(=O)CCCCCNC(=N)N)cc1 + Cc1sc2c(c1C)C(c1ccc(Cl)cc1)=N[C@@H](CC(=O)OC(C)(C)C)c1nnc(C)n1-2 [NCGC00250412-19] | -6.81
18 | OCCCNc1cc(-c2ccnc(Nc3cccc(Cl)c3)n2)ccn1 + Cc1sc2c(c1C)C(c1ccc(Cl)cc1)=N[C@@H](CC(=O)OC(C)(C)C)c1nnc(C)n1-2 [NCGC00250412-19] | -201
19 | COc1cccc(-c2ccc(NC(=O)C3=C(C(=O)O)CCC3)c(F)c2)c1 + Cc1sc2c(c1C)C(c1ccc(Cl)cc1)=N[C@@H](CC(=O)OC(C)(C)C)c1nnc(C)n1-2 [NCGC00250412-19] | -129
20 | Clc1cccc(-c2nnnn2Cc2cccnc2)c1Cl + Cc1sc2c(c1C)C(c1ccc(Cl)cc1)=N[C@@H](CC(=O)OC(C)(C)C)c1nnc(C)n1-2 [NCGC00250412-19] | -192
21 | Cc1cc(=O)oc2cc(O)ccc12 + Cc1sc2c(c1C)C(c1ccc(Cl)cc1)=N[C@@H](CC(=O)OC(C)(C)C)c1nnc(C)n1-2 [NCGC00250412-19] | -48.1
22 | CC(C)N(CCNC(=O)CN1CCCC1=O)C(C)C + Cc1sc2c(c1C)C(c1ccc(Cl)cc1)=N[C@@H](CC(=O)OC(C)(C)C)c1nnc(C)n1-2 [NCGC00250412-19] | 21.2
23 | O=C(CCCCCCNC(=O)c1cnc(N(c2ccccc2)c2ccccc2)nc1)NO + Cc1sc2c(c1C)C(c1ccc(Cl)cc1)=N[C@@H](CC(=O)OC(C)(C)C)c1nnc(C)n1-2 [NCGC00250412-19] | -34.2
24 | Nc1ccc(C(=O)c2cc3c(ccc4ccccc43)[nH]2)cc1 + Cc1sc2c(c1C)C(c1ccc(Cl)cc1)=N[C@@H](CC(=O)OC(C)(C)C)c1nnc(C)n1-2 [NCGC00250412-19] | -275
25 | COc1c(OCCCN2CCOCC2)ccc2c3n(c(=NC(=O)c4cnc(N)nc4)nc12)CCN3 + Cc1sc2c(c1C)C(c1ccc(Cl)cc1)=N[C@@H](CC(=O)OC(C)(C)C)c1nnc(C)n1-2 [NCGC00250412-19] | -358

Quoted at random: 2 entries already listed.
Row | SMILES | excess over highest single agent
14 | COc1ccc(C(=O)CC2(O)C(=O)Nc3c(Cl)ccc(Cl)c32)cc1 (stereo not given) + Cc1sc2c(c1C)C(c1ccc(Cl)cc1)=N[C@@H](CC(=O)OC(C)(C)C)c1nnc(C)n1-2 [NCGC00250412-19] | -308
17 | CCOC(=O)c1ccc(OC(=O)CCCCCNC(=N)N)cc1 + Cc1sc2c(c1C)C(c1ccc(Cl)cc1)=N[C@@H](CC(=O)OC(C)(C)C)c1nnc(C)n1-2 [NCGC00250412-19] | -6.81
